Here are results for two substances from publication PMC9751115.

Protein sequences, listed by entry. Tags and fused reporters are not part of them. Lines headed by an entry give the natural chain unless they say otherwise; changes in a name come on top. Residues count along the entry.
UniProt Q9BXM7, 78-581: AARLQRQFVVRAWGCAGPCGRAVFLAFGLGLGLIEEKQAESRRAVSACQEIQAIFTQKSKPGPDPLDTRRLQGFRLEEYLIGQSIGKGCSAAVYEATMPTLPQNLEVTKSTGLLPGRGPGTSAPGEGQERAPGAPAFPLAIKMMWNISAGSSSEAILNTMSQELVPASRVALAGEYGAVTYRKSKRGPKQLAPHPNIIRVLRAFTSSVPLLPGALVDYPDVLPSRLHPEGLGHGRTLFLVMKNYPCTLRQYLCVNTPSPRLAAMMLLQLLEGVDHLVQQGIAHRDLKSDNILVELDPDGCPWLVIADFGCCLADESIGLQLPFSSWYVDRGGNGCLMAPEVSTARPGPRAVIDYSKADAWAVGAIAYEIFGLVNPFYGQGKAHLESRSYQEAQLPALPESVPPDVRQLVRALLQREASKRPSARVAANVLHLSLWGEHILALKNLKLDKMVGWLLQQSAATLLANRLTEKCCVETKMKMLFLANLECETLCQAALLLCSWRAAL
UniProt P61586, whole entry, looked up, stated change not applied: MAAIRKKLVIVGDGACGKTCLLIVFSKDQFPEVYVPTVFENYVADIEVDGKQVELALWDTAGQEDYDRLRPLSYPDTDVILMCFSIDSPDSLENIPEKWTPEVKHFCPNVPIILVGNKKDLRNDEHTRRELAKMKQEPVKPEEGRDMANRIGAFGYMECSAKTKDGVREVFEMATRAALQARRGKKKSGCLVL

The target of assay [1] is miniSOG-tagged PINK1 (msPINK1) (UniProt Q9BXM7). As to the kind of experiment: co-IP; mitochondrial fractions of NRVMs expressing RhoA with msPINK1; HA or miniSOG immunoprecipitated; WB for HA and miniSOG.
The target is the same in assay [2]. As to the kind of experiment: co-IP; whole cell lysates of NRVMs co-expressing msPINK1 with GFP or HA-L63RhoA; 1 % digitonin buffer (20 mM Tris HCl pH 7.2, 50 mM KCl, 1 mM MgCl2); HA or miniSOG antibody on Dynabeads, 4 °C overnight; WB for HA and miniSOG.
Assay [3] concerns the target hemagglutinin (HA)-tagged active mutant of RhoA (L63RhoA), expressed in neonatal rat ventricular myocytes (UniProt P61586). As to the kind of experiment: co-IP; mitochondrial fractions of NRVMs expressing RhoA with msPINK1; HA or miniSOG immunoprecipitated; WB for HA and miniSOG.
Assay [4] shares this target. As to the kind of experiment: co-IP; whole cell lysates of NRVMs co-expressing msPINK1 with GFP or HA-L63RhoA; 1 % digitonin buffer (20 mM Tris HCl pH 7.2, 50 mM KCl, 1 mM MgCl2); HA or miniSOG antibody on Dynabeads, 4 °C overnight; WB for HA and miniSOG.

No constants are given. Whether binding was seen depends on the method and setting. Binding seen in cells or lysates may run through a third protein. Some binding calls cover weakened binding; strength is not graded here.

As for “hemagglutinin (HA)-tagged active mutant of RhoA (L63RhoA), expressed in neonatal rat ventricular myocytes (from UniProt P61586 1-193)”, the binding result in assay [1] and in assay [2] was “binds” in each case.
As for “miniSOG-tagged PINK1 (msPINK1) (from UniProt Q9BXM7 78-581)”, the binding result in assay [3] and in assay [4] was “binds” in each case.
